Results: paper doi:10.1101/2023.07.25.550453 (bioRxiv, 2023)

Sequences of proteins named here, by UniProt entry; tags and fusion partners are left off. A change or cut given only in a name is not applied to a line headed by its entry.
UniProt Q9H814: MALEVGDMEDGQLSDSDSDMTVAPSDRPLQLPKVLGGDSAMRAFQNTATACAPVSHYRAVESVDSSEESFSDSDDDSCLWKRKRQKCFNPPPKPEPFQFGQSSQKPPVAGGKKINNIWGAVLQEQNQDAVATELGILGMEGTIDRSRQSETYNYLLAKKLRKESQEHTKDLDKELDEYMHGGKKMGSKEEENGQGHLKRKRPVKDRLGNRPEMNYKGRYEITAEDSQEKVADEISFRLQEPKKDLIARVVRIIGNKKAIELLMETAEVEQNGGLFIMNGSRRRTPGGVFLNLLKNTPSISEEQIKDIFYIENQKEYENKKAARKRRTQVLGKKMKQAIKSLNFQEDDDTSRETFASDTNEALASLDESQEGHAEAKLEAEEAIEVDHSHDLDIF

What was measured:
[1] = molecular target: T1, PHAX^1-18 peptide E9R, biotinylated (human) (UniProt Q9H814); assay: BLI
T1 sequence (peptide, biotin): MALEVGDMRDGQLSDSDS

[2] = molecular target: T2, MBP-ZC3H18^220-353 (human) (UniProt Q86VM9); assay: pull-down
T2 sequence: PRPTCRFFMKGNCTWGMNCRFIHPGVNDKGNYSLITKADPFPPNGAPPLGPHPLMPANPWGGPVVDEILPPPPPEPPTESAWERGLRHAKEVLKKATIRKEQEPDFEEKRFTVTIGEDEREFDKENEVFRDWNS

CBP80ΔNLS (NCBP1), human = molecular target: T3, CBP80ΔNLS (NCBP1), human (human, UniProt Q09161 20-790); assay: cryo-EM structure
T3 sequence (looked up): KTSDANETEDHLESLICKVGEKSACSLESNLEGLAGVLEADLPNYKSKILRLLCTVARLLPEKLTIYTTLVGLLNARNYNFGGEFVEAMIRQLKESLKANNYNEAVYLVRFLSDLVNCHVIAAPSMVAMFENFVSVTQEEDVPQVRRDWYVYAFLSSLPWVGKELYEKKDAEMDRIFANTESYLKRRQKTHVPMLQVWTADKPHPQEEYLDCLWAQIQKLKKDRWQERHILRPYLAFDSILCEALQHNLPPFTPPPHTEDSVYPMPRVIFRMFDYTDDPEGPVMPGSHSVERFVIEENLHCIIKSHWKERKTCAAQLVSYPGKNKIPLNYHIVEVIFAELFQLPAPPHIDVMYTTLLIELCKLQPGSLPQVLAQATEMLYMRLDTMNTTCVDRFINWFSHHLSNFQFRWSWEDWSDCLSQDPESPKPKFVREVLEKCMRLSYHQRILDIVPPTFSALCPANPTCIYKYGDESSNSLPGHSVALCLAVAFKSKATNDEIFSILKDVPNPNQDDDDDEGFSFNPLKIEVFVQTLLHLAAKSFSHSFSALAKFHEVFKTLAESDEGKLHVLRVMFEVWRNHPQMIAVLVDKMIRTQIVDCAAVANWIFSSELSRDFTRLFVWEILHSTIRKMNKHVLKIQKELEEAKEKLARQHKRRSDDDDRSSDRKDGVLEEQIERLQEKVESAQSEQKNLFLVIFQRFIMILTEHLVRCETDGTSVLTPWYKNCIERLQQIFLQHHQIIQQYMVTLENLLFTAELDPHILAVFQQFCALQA

CBP20 (NCBP2), human = molecular target: T4, CBP20 (NCBP2), human (human, UniProt P52298 1-156); assay: cryo-EM structure
T4 sequence: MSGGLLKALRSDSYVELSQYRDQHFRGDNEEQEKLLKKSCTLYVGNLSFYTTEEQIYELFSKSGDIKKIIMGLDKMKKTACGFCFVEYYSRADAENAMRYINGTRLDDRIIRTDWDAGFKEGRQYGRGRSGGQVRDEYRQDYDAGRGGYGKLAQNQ

ARS2^147-871 (human) (domain or fragment)
binding [1]: no binding
binding [2]: binds
binding (CBP80ΔNLS (NCBP1), human): binds
binding (CBP20 (NCBP2), human): binds

No constants are given. Whether binding was seen depends on the method and setting. For some of these results: A result given as binding can be weak or reduced; the word gives no strength. For some of these results: Where a sequence is shown, tags or fusion partners need not be part of it.
